# Experimental data from PubChem BioAssay AID1347075 (National Center for Advancing Translational Sciences (NCATS), 2019).
# Among all 400,000 compounds or so, about 5,500 (1.4%) were called active. The inconclusive results got no clear call from the source; some entries with a clear call stand among them for comparison. The call rests on the fitted dose curve; in most records, active means well fitted cell-killing curve with a large enough effect; inconclusive means small, poorly fitted or top-dose-only effect, or effect the other way; inactive means flat fitted curve, though single readings scatter. A potency beside an inconclusive call is a rough fit, not a confirmed value.
# Experiment: qHTS assay for MDR1-selective chemotherapeutics: Primary screen using the parental adenocarcinoma cell KB-3-1; further: nearly all actives have a fitted effect of over 60% in size
# Settings: KB-3-1 viability, CellTiter-Glo ATP luminescence, 72 h; activity change, negative = cytotoxic: at 46.1 µM (top of the series)
# How it was run: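 KB-3-1 parental drug-naive adenocarcinoma cells in DMEM/10% FBS, incubated 72 h at 37 C with pin-transferred compounds across a concentration series. Viability by CellTiter-Glo luminescence; concentration-response curves fitted after normalization.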
# On the % scale 0 is the no-effect control and ±100 the full control effect; potency means the concentration at half of the fitted maximal effect.
Structure (SMILES),Potency,"activity change, negative = cytotoxic"
Cc1c(C(=O)Nc2nccs2)oc2ccc(Br)cc12,active: 5.8 µM,
CCc1ccc(OCc2nc(-c3ccccn3)no2)c(Br)c1,"inconclusive: 18.4 µM [rising, single point]",
CSc1ccc(S(=O)(=O)NCCOc2ccccc2C)cc1,,inactive: 10.7%
COc1cc(C(=O)N2CCN(c3ccc([N+](=O)[O-])cc3)CC2)ccc1OCc1c(C)noc1C,,inactive: -20.9%
CCSc1nnc(-c2ccc(S(=O)(=O)N3CCOCC3)cc2)n1C,"inconclusive: 13 µM [cytotoxic, partial curve, poor fit]",
O=S(=O)(NC1=NCCCCC1)c1ccc2sc(NS(=O)(=O)c3ccc4ccccc4c3)nc2c1,"inconclusive: 23.1 µM [cytotoxic, single point]",
COc1cccc(Nc2ncnc3c2cnn3-c2cccc(C)c2)c1,,inactive: 1.82%
CN(CCc1ccccn1)C(=S)Nc1ccc(Cl)c(Cl)c1,,inactive: 3.79%
CC1CCN(S(=O)(=O)c2ccc(NC(=O)c3ccncc3)cc2)CC1,active: 16.4 µM,
CC(O)C(=O)N/N=C/c1cccc(Cl)c1Cl (stereo not given),"inconclusive: 29.1 µM [cytotoxic, single point]",
c1ccc(-c2cc(-c3nc4ccccc4[nH]3)c3ccccc3n2)cc1,active: 16.4 µM,
COc1ccc(S(=O)(=O)N2CCOCC2)cc1NC(=O)c1ccccc1-c1ccc(C(F)(F)F)cc1,,inactive: -0.0505%
CC(=O)CCc1c(C)c2cc(C)ccc2[nH]c1=O,"inconclusive: 29.1 µM [cytotoxic, partial curve, poor fit]",
O=C(CSc1nnc(Cc2cccs2)n1C1CCCCC1)N1CCCc2ccccc21,"inconclusive: 29.1 µM [cytotoxic, single point]",
COCCNC(=O)/C(C#N)=C/c1cccc(/C=C(\C#N)C(=O)NCCOC)c1,,inconclusive: -36.6% [cytotoxic]
CN1CCN(C2Cc3ccc(F)cc3Sc3cc(F)c(Cl)cc32)CC1 (stereo not given),"inconclusive: 25.9 µM [cytotoxic, single point]",
C[C@H](CO)N1C[C@H](C)[C@@H](CN(C)S(=O)(=O)c2ccccc2)Oc2ccc(NC(=O)C3CC3)cc2C1=O,,inactive: 0%
C=CCOc1ccc(CN(C)C(=O)CNC(=O)c2ccc(-c3ccccc3)cc2)cc1,active: 4.61 µM,
CCOC(=O)Cc1csc(NC(=O)c2c(C)noc2C)n1,"inconclusive: 29.1 µM [cytotoxic, single point]",
CCN1C(=O)[C@H]2[C@@H](c3ccc(-c4ccccc4)cc3)N3CCCC[C@@]3(C(=O)OC)[C@H]2C1=O,"inconclusive: 29.1 µM [cytotoxic, single point]",
O=C(CSCc1cccc(CSCC(=O)Nc2ccc3ccccc3c2)n1)Nc1ccc2ccccc2c1,"inconclusive: 23.1 µM [cytotoxic, partial curve]",
CC(=O)Nc1ccc(C(=O)CSc2nnc3cc(C)c4ccccc4n23)cc1,,inactive: 1.57%
C/C(=N\NC(=O)c1c[nH]c2ccccc12)c1ccccn1,"inconclusive: 23.1 µM [cytotoxic, partial curve, poor fit]",
CCCCn1c(CCC)nc([N+](=O)[O-])c1Sc1ccc(Cl)cn1,"inconclusive: 16.4 µM [cytotoxic, single point]",

# Taken from above:
# activity change, negative = cytotoxic with C[C@H](CO)N1C[C@H](C)[C@@H](CN(C)S(=O)(=O)c2ccccc2)Oc2ccc(NC(=O)C3CC3)cc2C1=O reads inactive: 0%
# Potency with CCc1ccc(OCc2nc(-c3ccccn3)no2)c(Br)c1 reads inconclusive: 18.4 µM [rising, single point]
# Potency with C/C(=N\NC(=O)c1c[nH]c2ccccc12)c1ccccn1 reads inconclusive: 23.1 µM [cytotoxic, partial curve, poor fit]

# (further entries)

Structure (SMILES),Potency,"activity change, negative = cytotoxic"
CCCCNC(=O)c1ccc2c(=O)n(-c3ccccc3)c(=O)[nH]c2c1,"inconclusive: 18.4 µM [rising, single point]",
CC[n+]1ccc(C)c2cc(S(=O)C(F)(F)F)ccc21 (stereo not given),"inconclusive: 16.4 µM [cytotoxic, single point]",
CCCCn1c(-c2ccsc2)nc2c1c(=O)[nH]c(=O)n2CCC,"inconclusive: 29.1 µM [cytotoxic, single point]",
O=C(N/N=C/c1ccccc1O)c1cccc(C(F)(F)F)c1,"inconclusive: 32.6 µM [cytotoxic, single point]",
O=C(NCc1ccccc1CN1CCOCC1)c1ccc(-n2cccn2)cc1,,inactive: 23.8%
Cc1cc(OCC(=O)OCC(=O)N(Cc2ccccc2)C(C)(C)C)ccc1Cl,,inactive: 0.907%
COc1cccc(C2c3[nH]c4ccccc4c3C[C@H]3C(=O)N(C4CCN(Cc5ccccc5)CC4)CC(=O)N23)c1 (stereo not given in full),,inconclusive: -83.1%
COCCCNCCCOc1ccc(Cl)cc1C(C)(C)C,"inconclusive: 32.6 µM [cytotoxic, single point]",
Cc1sc2nc(CSCC(=O)Nc3ccccc3C#N)[nH]c(=O)c2c1C,,inactive: 4.85%
CCNC(=S)N/N=C(\C)c1cccc([N+](=O)[O-])c1,,inactive: -0.43%
Cc1cnc(Nc2nc3ccccc3o2)nc1C(=O)Nc1cccc(C(F)(F)F)c1,active: 16.4 µM,
CCOc1ccc(C(=O)OCC(=O)Nc2cccnc2Cl)cc1OCC,,inactive: -1.31%
COc1ccc(-c2nc(CS(=O)CC(=O)NC3CCCC3)c(C)o2)cc1 (stereo not given),"inconclusive: 20.6 µM [rising, partial curve, poor fit]",
Cc1nc(CN2CCCCC2)cc(=O)[nH]1,"inconclusive: 0.0411 µM [rising, full curve]",
COc1ccc(Cl)c(N2CCN(CCCNC(=O)Nc3ccc(C)cc3)CC2)c1,active: 23.1 µM,
CSc1ccc(Cn2c(C)c(C(=O)NCc3ccc(F)cc3)sc2=O)cc1,"inconclusive: 29.1 µM [cytotoxic, single point]",
Cc1ccc2ccccc2c1C(O)c1ncc(-c2ccccc2)[nH]1 (stereo not given),,inactive: -0.051%
CCn1cc(C(=O)NC(=S)Nc2sc3c(c2C(=O)OC)CCCCCC3)cn1,"inconclusive: 32.6 µM [cytotoxic, single point]",
CC1CCN(S(=O)(=O)c2cc(C(=O)NCc3ccc(F)cc3)n(C)c2)CC1,,inactive: -3.36%
Cn1nnnc1Sc1ncnc2scc(-c3ccc(C#N)cc3)c12,"inconclusive: 16.4 µM [cytotoxic, partial curve, poor fit]",
O=C(NNS(=O)(=O)c1ccc(Br)cc1)NC1CCCCC1,,inactive: -0.343%
O=C(c1ccccc1)N1CCN(CC#CC2(O)CCCCC2)CC1,"inconclusive: 29.1 µM [rising, single point]",
O=C(C=Cc1ccc2c(c1)OCO2)OCC=Cc1ccc2c(c1)OCO2,"inconclusive: 16.4 µM [cytotoxic, single point]",
CC(=O)Nc1ccc(NC(=O)C2CCCCN2S(=O)(=O)c2ccc(C(C)(C)C)cc2)cc1 (stereo not given),,inactive: -3.6%

Structure (SMILES),Potency,"activity change, negative = cytotoxic"
Cc1ccc(-c2nnn(CC(=O)N(Cc3ccco3)C(C(=O)NC(C)(C)C)c3ccc(C)o3)n2)o1 (stereo not given),"inconclusive: 23.1 µM [cytotoxic, partial curve]",
COc1ccc(C)cc1S(=O)(=O)N1CC(C)OC(C)C1 (stereo not given),"inconclusive: 25.9 µM [rising, single point]",
CCC1(OC(=O)CN(C)C)C(=O)OCc2c1cc1n(c2=O)Cc2cc3c(N)cccc3nc2-1 (stereo not given),"inconclusive: 4.61 µM [cytotoxic, full curve, poor fit]",
COc1ccc(-c2[nH]ncc2CN(C)Cc2cnccn2)c(OC)c1,"inconclusive: 25.9 µM [rising, single point]",
COC(=O)c1ccc(NC(=O)c2nc(S(=O)(=O)Cc3cccc(C)c3)ncc2Cl)cc1,active: 14.6 µM,
O=C1/C(=C\c2ccc3ccccc3c2)CCCc2ccccc21,active: 5.17 µM,
OC(c1cccc(OCc2ccccc2)c1)c1nnc(-c2ccccc2)o1 (stereo not given),"inconclusive: 8.2 µM [cytotoxic, partial curve, poor fit]",
CCOC(=O)c1c(C)[nH]c(C)c1C(=O)CSc1nc2ccccc2c(=O)n1-c1ccc(Cl)cc1,"inconclusive: 29.1 µM [cytotoxic, single point]",
COc1cccc2[nH]c3c(Cl)ncnc3c12,,inconclusive: -0.29%
CCCCN(C(=O)c1cc(-c2ccc(F)cc2)nc2ccccc12)c1c(N)n(CCCC)c(=O)[nH]c1=O,"inconclusive: 29.1 µM [cytotoxic, single point]",
COc1ccc(-c2nc(N)ncc2-c2ccc(OC)c(OC)c2)c(O)c1,"inconclusive: 20.6 µM [cytotoxic, single point]",
Cc1cc(NC(=O)c2ccco2)sc1C,"inconclusive: 18.4 µM [cytotoxic, single point]",
CCCCNC(=O)CN1C(=O)NC2NC(=O)NC21 (stereo not given),"inconclusive: 29.1 µM [rising, single point]",
CC(C)(C)n1cnc2cc(NS(=O)(=O)c3ccc(Br)cc3)ccc21,"inconclusive: 25.9 µM [cytotoxic, partial curve, poor fit]",
COc1ccccc1C(=O)Nc1nnc(S(=O)(=O)N2CCN(c3ccc(F)cc3)CC2)s1,"inconclusive: 25.9 µM [cytotoxic, single point]",
CC(=O)Nc1cccc(-c2ccnc3c2CC(C)(C(=O)NCC2CC2)O3)c1 (stereo not given),active: 11.6 µM,
Cc1nc(SCC(=O)NCc2ccc(F)cc2)c2c(=O)n(C)c(=O)n(C)c2n1,"inconclusive: 29.1 µM [rising, single point]",
CC(=O)c1ccc(NC(=O)COC(=O)c2ccccc2Sc2ccccc2C#N)cc1,"inconclusive: 10.3 µM [rising, partial curve]",
CC1CN(CCS(=O)(=O)c2cc(Cl)ccc2Cl)CC(C)O1 (stereo not given),"inconclusive: 29.1 µM [cytotoxic, single point]",
COc1ccccc1CNC(=O)C(Cc1c[nH]c2ccccc12)NC(=O)OCc1ccccc1 (stereo not given),"inconclusive: 29.1 µM [cytotoxic, single point]",
CSc1ccc(CNC(=O)Cc2ccc(NC(=O)C3=C(C)OCCS3)cc2)cc1,active: 5.8 µM,
CCCCCCCNc1ccc(/C=C/c2ccnc3ccccc23)cc1,"inconclusive: 2.91 µM [rising, partial curve, poor fit]",
